Source: the supplement of paper PMC6078165
The reference is the same well before dosing, and untreated signal decays as well.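 Labels refer to human fibroblasts, largely primary: uterine (C12385, HUF), lung (H6013), bone (Hs27A), adrenal (HADF), skin (WS1), plus mammary HMF and breast cancer-associated Hs343T. Cancer lines are basal-like or mesenchymal-like triple-negative breast cancer. The paper counts as hits responses shifting over 3x the replicate standard deviation. The tissue of the other fibroblasts is not given here.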

System: MDAMB231
Assay: relative JC-1 red fluorescence (viability) vs pre-drug, coculture with fibroblast (fraction); higher = more viable cancer cells
Method: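 JC-1 labelled TNBC cells cocultured 1:1 (1,500 cells each) with CellTrace Violet stained primary or stromal fibroblasts in 384-well plates in FluoroBrite medium, treated with one of 42 anticancer drugs at 0.1, 1, 10 or 100 uM. JC-1 red fluorescence (mitochondrial integrity in cancer cells only) was read by plate reader every 8 h for 72 h. Values are normalised to each well's pre-drug value. The stock of one drug was tenfold lower, so its dose labels may be too high.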

CO[C@H]1C[C@@H]2CC[C@@H](C)[C@@](O)(O2)C(=O)C(=O)N2CCCC[C@H]2C(=O)O[C@H]([C@H](C)C[C@@H]2CC[C@@H](O)[C@H](OC)C2)CC(=O)[C@H](C)/C=C(\C)[C@@H](O)[C@@H](OC)C(=O)[C@H](C)C[C@H](C)/C=C/C=C/C=C/1C [Rapamycin]
relative JC-1 red fluorescence
Conditions | 8 h | 16 h | 24 h | 32 h | 40 h | 48 h | 56 h | 64 h | 72 h
10 µM, coculture fibroblast: C12385 | 0.681 | 0.753 | 0.635 | 0.775 | 0.763 | 0.771 | 0.739 | 0.74 | 0.726
10 µM, coculture fibroblast: H6013 | 0.86 | 0.808 | 0.813 | 0.7804 | 0.762 | 0.739 | 0.835 | 0.776 | 0.778
10 µM, coculture fibroblast: H6019 | 0.694 | 0.664 | 0.541 | 0.574 | 0.561 | 0.5722 | 0.582 | 0.618 | 0.618
10 µM, coculture fibroblast: H6076 | 0.825 | 0.98 | 0.9623 | 0.962 | 0.944 | 0.943 | 0.955 | 0.968 | 0.976
10 µM, coculture fibroblast: H6231 | 0.94 | 0.9395 | 0.953 | 0.95 | 0.935 | 0.947 | 0.93 | 0.939 | 0.926
10 µM, coculture fibroblast: HADF | 0.9059 | 0.891 | 0.907 | 0.939 | 0.938 | 0.903 | 0.921 | 0.921 | 0.904
10 µM, coculture fibroblast: HCFa | 0.902 | 0.857 | 0.854 | 0.852 | 0.8026 | 0.758 | 0.74716 | 0.723 | 0.691
10 µM, coculture fibroblast: HCPF | 0.856 | 0.911 | 0.941 | 0.833 | 0.853 | 0.881 | 0.9016 | 0.83 | 0.841
10 µM, coculture fibroblast: HHSteC | 0.8818 | 0.8656 | 0.8636 | 0.8609 | 0.843 | 0.829 | 0.799 | 0.796 | 0.761
10 µM, coculture fibroblast: HMF | 0.954 | 0.927 | 0.9289 | 0.9173 | 0.912 | 0.884 | 0.887 | 0.877 | 0.864
10 µM, coculture fibroblast: HPFa | 0.909 | 0.929 | 0.912 | 0.907 | 0.912 | 0.897 | 0.873 | 0.87 | 0.833
10 µM, coculture fibroblast: HUF | 0.7421 | 0.737 | 0.806 | 0.782 | 0.777 | 0.773 | 0.743 | 0.76 | 0.747
10 µM, coculture fibroblast: Hs5 | 0.9921 | 0.971 | 0.971 | 0.961 | 0.947 | 0.909 | 0.877 | 0.87 | 0.852
10 µM, coculture fibroblast: Hs27A | 0.8568 | 0.853 | 0.862 | 0.877 | 0.842 | 0.763 | 0.811 | 0.809 | 0.783
10 µM, coculture fibroblast: Hs343T | 0.9724 | 0.932 | 0.9131 | 0.898 | 0.8608 | 0.8397 | 0.815 | 0.8099 | 0.81089
10 µM, coculture fibroblast: WS1 | 0.6916 | 0.723 | 0.67 | 0.745 | 0.752 | 0.741 | 0.724 | 0.731 | 0.709
100 µM, coculture fibroblast: C12385 | 0.64452 | 0.689 | 0.497 | 0.543 | 0.47 | 0.34 | 0.274 | 0.2536 | 0.269
100 µM, coculture fibroblast: H6013 | 0.8333 | 0.671 | 0.556 | 0.509 | 0.392 | 0.343 | 0.338 | 0.362 | 0.363
100 µM, coculture fibroblast: H6019 | 0.793 | 0.771 | 0.641 | 0.692 | 0.644 | 0.557 | 0.449 | 0.338 | 0.282
100 µM, coculture fibroblast: H6076 | 0.8363 | 0.662 | 0.586 | 0.514 | 0.442 | 0.351 | 0.305 | 0.308 | 0.331
100 µM, coculture fibroblast: H6231 | 0.86 | 0.901 | 0.844 | 0.857 | 0.891 | 0.761 | 0.701 | 0.707 | 0.708
100 µM, coculture fibroblast: HADF | 0.8423 | 0.704 | 0.544 | 0.484 | 0.362 | 0.28 | 0.265 | 0.294 | 0.299
100 µM, coculture fibroblast: HCFa | 0.859 | 0.732 | 0.638 | 0.602 | 0.495 | 0.368 | 0.324 | 0.334 | 0.338
100 µM, coculture fibroblast: HCPF | 0.969 | 0.779 | 0.8115 | 0.866 | 0.742 | 0.778 | 0.754 | 0.661 | 0.642
100 µM, coculture fibroblast: HHSteC | 0.879 | 0.776 | 0.654 | 0.603 | 0.482 | 0.379 | 0.326 | 0.339 | 0.352
100 µM, coculture fibroblast: HMF | 0.9609 | 0.869 | 0.772 | 0.697 | 0.629 | 0.527 | 0.472 | 0.458 | 0.473
100 µM, coculture fibroblast: HPFa | 0.908 | 0.799 | 0.656 | 0.587 | 0.4885 | 0.387 | 0.321 | 0.321 | 0.326
100 µM, coculture fibroblast: HUF | 0.788 | 0.779 | 0.809 | 0.765 | 0.613 | 0.53 | 0.48 | 0.54 | 0.553
100 µM, coculture fibroblast: Hs5 | 0.925 | 0.691 | 0.59 | 0.518 | 0.472 | 0.396 | 0.357 | 0.35 | 0.376
100 µM, coculture fibroblast: Hs27A | 0.832 | 0.759 | 0.728 | 0.683 | 0.582 | 0.464 | 0.395 | 0.432 | 0.426
100 µM, coculture fibroblast: Hs343T | 0.919 | 0.819 | 0.719 | 0.629 | 0.544 | 0.452 | 0.39 | 0.372 | 0.35526
100 µM, coculture fibroblast: WS1 | 0.745 | 0.721 | 0.51 | 0.509 | 0.446 | 0.332 | 0.265 | 0.26 | 0.284
